Data from PubChem BioAssay AID1347084 (National Center for Advancing Translational Sciences (NCATS), 2019).
The shares of active, inactive and inconclusive entries below differ from those in the screen. A potency beside an inconclusive call is a rough fit, not a confirmed value. Active and inactive are the calls of the source. Calls come from the whole dose curve.

Assay: qHTS for Inhibitors of the Functional Ribonucleoprotein Complex (vRNP) of Lymphocytic Choriomeningitis Arenaviruses (LCMV): LCMV Confirmatory Screen - GLuc reporter signal
Settings: LCMV minigenome vRNP, Gaussia luciferase reporter; series mostly up to 53.9 µM

Structure (SMILES)	Potency
COC1=CC(=O)C[C@@H](C)[C@]12Oc1c(Cl)c(OC)cc(OC)c1C2=O	inconclusive: 30.6 µM [inhibitor, single point]
CC12C(=O)OC(=O)C1(C)C1CCC2O1 (centres undefined)	active: 9.68 µM
O=C(Nc1ccccc1)Nc1ccc(-c2ccc(C(=O)[C@H]3CCC[C@H]3C(=O)O)cc2)cc1	inactive
CN(C)c1ccc(O)c2c1C[C@H]1C[C@H]3[C@H](N(C)C)C(=O)C(C(N)=O)=C(O)[C@@]3(O)C(=O)C1=C2O	inconclusive: 27.3 µM [inhibitor, partial curve]
O=C(Nc1ccc(Cl)c(Cl)c1)C1CC1	inconclusive: 21.7 µM [inhibitor, partial curve]
CN1C(C(=O)Nc2ccccn2)=C(O)c2ccccc2S1(=O)=O	inconclusive: 19.3 µM [inhibitor, partial curve, poor fit]
O=C1NC(=O)/C(=C/c2ccc3nccnc3c2)S1	inconclusive: 38.5 µM [inhibitor, single point]
Cc1ccc2c(c1)C1CN(C)CCC1N2 (centres undefined)	inactive
CCc1cncnc1N1CCN(Cc2nc3ccc(C(F)(F)F)cc3[nH]2)CC1	active: 4.44 µM
